Assay results from EP0077028B1 (Merck & Co., Inc., priority 1981, dated 1987).

Assay: general procedure: Boc solid-phase peptide synthesis
Details: whole synthesis, TLC

N-Isovaleryl-L-histidyl-L-prolyl-L-phenylalanyl-L-histidyl-(3S,4S)-statyl-L-leucyl-L-phenylalanine amide
final HPLC purity: Greater than 99%
